Experimental data published in PubChem BioAssay (EPA / NIEHS).
The shares of active, inactive and inconclusive entries below differ from those in the screen. Potencies beside an inconclusive call are fits to weak or partial responses and may not hold up. The source made the active and inactive calls. Rule for the calls: active = hit-call score of the fitted dose curve at least 0.9, where 1 is the maximum; inconclusive = response in the unintended direction; inactive = score below 0.9.

Chains of the proteins cited; added tags and fusions are not shown. Lines headed by an entry give the natural chain unless they say otherwise; changes in a name come on top.
UniProt P22734: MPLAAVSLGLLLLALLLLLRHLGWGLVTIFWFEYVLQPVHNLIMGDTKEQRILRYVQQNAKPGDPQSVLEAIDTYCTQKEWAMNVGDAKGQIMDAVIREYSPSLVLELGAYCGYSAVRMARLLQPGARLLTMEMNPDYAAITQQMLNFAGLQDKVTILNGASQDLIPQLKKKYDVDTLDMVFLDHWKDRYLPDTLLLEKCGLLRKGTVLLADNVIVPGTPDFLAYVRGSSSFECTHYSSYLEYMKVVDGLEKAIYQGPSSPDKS

biological target: rat Catechol-O-Methyl Transferase (COMT), Comt (gene 24267) (UniProt P22734); assay: NVS_ENZ_rCOMT: NovaScreen (NVS) Enzymatic Assay for rat Catechol-O-Methyl Transferase (COMT) (AID 2283235)
Description: NVS_ENZ_rCOMT is a biochemical, single-readout assay that uses extracted gene-proteins from Rat dorsal striatum in a tissue-based cell-free assay. Measurements were taken 0 hour after chemical dosing in a 96-well plate.NVS_ENZ_rCOMT is one of one assay component(s) measured or calculated from the NVS_ENZ_rCOMT assay. It is designed to make measurements of enzyme activity, a form of enzyme reporter, as detected with absorbance signals by HPLC and Spectrophotometry technology.Data from the assay component NVS_ENZ_rCOMT was analyzed into 1 assay endpoint. This assay endpoint, NVS_ENZ_rCOMT, was analyzed in the positive analysis fitting direction relative to DMSO as the negative control and baseline of activity. Using a type of enzyme reporter, loss-of-signal activity can be used to understand changes in the enzymatic activity as they relate to the gene Comt. Furthermore, this assay endpoint can be referred to as a primary readout, because this assay has produced multiple assay endpoints where this one serves a enzymatic activity function. To generalize the intended target to other relatable targets, this assay endpoint is annotated to the methyltransferase intended target family, where the subfamily is o-methyltransferase.
Binding assays used specific radioligands (tritiated, iodinated) with non-radioactive competitive displacement ligands in agonist or antagonist protocols (as indicated) and various reference compounds and inhibitors to titrate specific binding to receptors and transporters. Most enzyme assays (CYPs, kinases, phosphatases, proteases, HDACs) used recombinant protein and specific substrates (fluorescence mostly, some colorimetric and radioactive) and inhibitors, followed by a biochemical separation of substrate and product. All assays for the biochemical HTS were initially run in duplicate at a single concentration (10 uM for CYP450 assays and 25 uM for all others). Assay-chemical combinations meeting a pre-defined threshold (e.g., 30% inhibition and other criteria defined below) were then run in singleton concentration-response format with maximum concentration of 20 uM for CYPs and 50 uM for all others. Each assay was run with positive and negative controls, and concurrent controls on every plate. The follow-up (secondary) screen tested active chemical-pairs in concentration series, as well as a few additional assays not tested in the primary screen, some selected negative inactives, and several cases re-run in the concentration series for confirmatory purposes.

Row | SMILES | AC50
1 | CCCOC(=O)c1cc(O)c(O)c(O)c1 | active: 0.454 µM
2 | CC(C)CCCCCCOC(=O)CCCCC(=O)OCCCCCCC(C)C | inconclusive: 0.874 µM
3 | C#C[C@]1(O)CC[C@H]2[C@@H]3CCC4=CC(=O)CC[C@@H]4[C@H]3CC[C@@]21C | inconclusive: 6.45 µM
4 | O=c1c(O)c(-c2ccc(O)c(O)c2)oc2cc(O)cc(O)c12 | active: 12.4 µM
5 | CN(C)CCCN(C)CCCN(C)C | inconclusive: 0.189 µM
6 | CC(=O)S[C@@H]1CC2=CC(=O)CC[C@]2(C)[C@H]2CC[C@@]3(C)[C@@H](CC[C@@]34CCC(=O)O4)[C@H]12 | inconclusive: 0.193 µM
7 | O=C(O)Cc1ccccc1Nc1c(Cl)cccc1Cl | inconclusive: 1.45 µM
8 | COC(=O)CCC(=O)OC | inconclusive: 4.93 µM
9 | CCCC(=O)OCCC(C)C | inconclusive: 25 µM
10 | O=C(O)c1ccccc1C(c1ccc(O)cc1)c1ccc(O)cc1 | inconclusive: 25 µM

Some values from the results shown.
AC50 with CC(=O)S[C@@H]1CC2=CC(=O)CC[C@]2(C)[C@H]2CC[C@@]3(C)[C@@H](CC[C@@]34CCC(=O)O4)[C@H]12 reads inconclusive: 0.193 µM
AC50 with O=c1c(O)c(-c2ccc(O)c(O)c2)oc2cc(O)cc(O)c12 reads active: 12.4 µM
